From patent US20040091453
At least one result comes from cells or an extract, where the contact may be indirect. For some assays here: The exact form of at least one protein or probe is not confirmed. For some assays here: A negative result means that nothing was seen under these conditions.

Amino acid sequences for entries named in this document (tags omitted). Residues count along the entry.
UniProt A0A8I6A0B6, entry or part of it: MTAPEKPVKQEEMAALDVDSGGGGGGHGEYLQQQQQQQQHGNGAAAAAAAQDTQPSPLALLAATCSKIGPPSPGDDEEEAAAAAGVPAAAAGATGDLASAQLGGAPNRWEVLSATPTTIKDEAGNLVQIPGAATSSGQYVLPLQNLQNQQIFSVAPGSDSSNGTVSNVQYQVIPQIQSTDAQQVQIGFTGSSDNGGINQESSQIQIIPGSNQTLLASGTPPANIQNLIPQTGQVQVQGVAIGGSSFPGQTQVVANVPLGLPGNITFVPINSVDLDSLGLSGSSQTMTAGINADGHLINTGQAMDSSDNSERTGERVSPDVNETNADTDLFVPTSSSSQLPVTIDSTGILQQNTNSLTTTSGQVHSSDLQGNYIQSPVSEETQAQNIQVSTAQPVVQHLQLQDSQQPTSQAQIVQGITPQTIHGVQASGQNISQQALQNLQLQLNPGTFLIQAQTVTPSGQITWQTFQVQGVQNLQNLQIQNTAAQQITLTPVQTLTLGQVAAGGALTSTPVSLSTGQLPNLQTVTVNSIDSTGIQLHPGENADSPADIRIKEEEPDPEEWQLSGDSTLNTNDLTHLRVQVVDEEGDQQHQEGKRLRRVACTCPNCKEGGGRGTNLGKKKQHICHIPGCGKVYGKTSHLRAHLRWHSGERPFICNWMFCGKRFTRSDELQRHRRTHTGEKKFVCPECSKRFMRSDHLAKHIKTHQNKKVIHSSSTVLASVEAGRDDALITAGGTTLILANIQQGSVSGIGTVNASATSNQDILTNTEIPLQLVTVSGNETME
UniProt P27008, 2-1014: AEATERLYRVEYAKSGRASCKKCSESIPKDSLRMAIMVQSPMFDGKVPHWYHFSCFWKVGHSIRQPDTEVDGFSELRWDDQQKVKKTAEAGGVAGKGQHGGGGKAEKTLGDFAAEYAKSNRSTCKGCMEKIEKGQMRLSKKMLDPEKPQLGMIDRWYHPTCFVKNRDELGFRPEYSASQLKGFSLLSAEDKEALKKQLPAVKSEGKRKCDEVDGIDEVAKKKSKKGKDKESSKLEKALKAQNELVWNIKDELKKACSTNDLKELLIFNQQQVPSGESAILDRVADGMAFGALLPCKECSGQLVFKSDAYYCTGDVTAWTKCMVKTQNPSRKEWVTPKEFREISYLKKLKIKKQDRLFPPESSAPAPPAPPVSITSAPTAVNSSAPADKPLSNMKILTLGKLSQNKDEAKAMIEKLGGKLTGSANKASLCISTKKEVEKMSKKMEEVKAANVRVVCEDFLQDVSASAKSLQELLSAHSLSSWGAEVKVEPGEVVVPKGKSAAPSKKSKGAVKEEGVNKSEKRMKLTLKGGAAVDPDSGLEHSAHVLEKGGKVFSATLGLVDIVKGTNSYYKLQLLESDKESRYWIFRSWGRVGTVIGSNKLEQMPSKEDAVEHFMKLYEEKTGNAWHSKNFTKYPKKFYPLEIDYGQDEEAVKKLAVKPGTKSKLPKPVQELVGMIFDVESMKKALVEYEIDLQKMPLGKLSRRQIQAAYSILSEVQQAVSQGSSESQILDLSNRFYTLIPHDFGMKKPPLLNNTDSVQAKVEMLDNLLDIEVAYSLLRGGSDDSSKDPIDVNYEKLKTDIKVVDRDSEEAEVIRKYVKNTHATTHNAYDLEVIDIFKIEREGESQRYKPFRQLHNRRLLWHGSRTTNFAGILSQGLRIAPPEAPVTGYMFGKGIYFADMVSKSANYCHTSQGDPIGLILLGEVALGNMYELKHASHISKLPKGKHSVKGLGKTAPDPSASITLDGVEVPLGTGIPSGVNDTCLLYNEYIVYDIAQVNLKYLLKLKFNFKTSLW

Columns and labels:
[1] = system: RINm5F nuclear factors (IL-6/dexamethasone-induced GC box-like binding complex containing PARP) (Rattus norvegicus); test: competition with a labelled probe; conditions: 100-fold excess unlabeled, protein in an extract
[2] = system: RINm5F nuclear factors (IL-6/dexamethasone-induced GC box-like binding complex containing PARP) (Rattus norvegicus); test: EMSA; conditions: lowest band only after IL-6/dexamethasone with or without nicotinamide; attenuated by beta-NAD+; protein in an extract; label: 32P
[3] = target: Sp3, RINm5F nuclear extract (Rattus norvegicus) (UniProt A0A8I6A0B6); test: EMSA; conditions: supershift with anti-Sp3; the inducible active complex was not supershifted; protein in an extract; label: 32P
[4] = target: PARP (113 kDa nuclear protein), RINm5F nuclear extract (Rattus norvegicus) (UniProt P27008); test: binding assay; conditions: Southwestern blot; 113 kDa band matched by anti-PARP antibodies; independent of poly(ADP-ribosyl)ation; protein in an extract; label: 32P

“AGGAGAAAGAAGGGCGTAGTATCTA (double strand) [GKLF binding sequence]”: no binding ([1]; no competition).
“ATTCGATCGGGGCGGGGCGAGC (double strand) [Sp1 GC box consensus]”: binds ([1]; all bands disappeared).
“TCAGCTTTTGGGAATGTATTCCCTGTCA (double strand) [IK-BS4 Ikaros binding sequence]”: no binding ([1]; no competition).
“TTCCTTGCCCCGCCCATTTTTC (double strand) [Probe M2]”: binds ([1]; all bands disappeared, variant of Probe 1 (rat Reg -86 to -65)).
“TTCCTTGCCCCTAACATTTTTC (double strand) [Probe M1]”: no binding ([1]; no competition, variant of Probe 1 (rat Reg -86 to -65)).
“TTCCTTGCCCCTCCCATTTTTC (double strand) [Probe 1 (rat Reg -86 to -65)]”: binds [2]; binds [3]; binds [4].
